PubChem BioAssay AID1259314 | Drosophila RNAi Screening Center – 2017
Shown is an unselected part of about 3,100 deposited reagents. Over the whole deposit, 289 (9.3%) got an active call. 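Active includes both higher and lower ATP than plate average; check the z-score sign for direction.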 A plus sign joins genes that one reagent is predicted to hit. Not given: the amount of reagent.

Aim: 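Transmembrane protein genes affecting ATP after manganese overload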 (primary screen)
Cell system: Drosophila S2R+ cells
Knock-down reagent: long dsRNA against Drosophila genes
Timing: 5 days (4 days knock-down, then 1 day metal exposure)
Conditions: manganese chloride added to 15 mM for 24 hours
Detection: 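Cellular ATP measured by luciferase light, scaled to the plate mean, averaged across replicates and z-scored over plates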
Reading the numbers: mean ATP z-score: higher = more ATP than the plate average, more viable cells under manganese
Call rule: 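a mean ATP z-score past 1.5 in either direction is called active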
Meaning of the calls: active = strong ATP change, up or down; inactive = no strong ATP change

gene,amplicon,mean ATP z-score,Outcome
Gr47b,DRSC05275,0.107,inactive
Gr47b,DRSC39674,-0.204,inactive
Zip88E,DRSC15562,-0.48,inactive
Zip88E,DRSC25826,-0.178,inactive
CG3592,DRSC18315,-0.175,inactive
CG3592,DRSC39849,-0.666,inactive
Gr92a,DRSC21631,-0.0917,inactive
Gr92a,DRSC39582,-0.156,inactive
ics,DRSC29655,0.633,inactive
Oct-TyrR,DRSC11883,-1.88,active
Oct-TyrR,DRSC39865,-0.536,inactive
ATPsynbeta,DRSC17194,-1.86,active
crq,DRSC00810,0.488,inactive
Lrch,DRSC02996,0.219,inactive
Lrch,DRSC29145,1.11,inactive
Stt3A,DRSC20514,-0.456,inactive
Stt3A,DRSC24884,1,inactive
bib,DRSC03496,-1.01,inactive
CG31741,DRSC02887,-0.0327,inactive
CG13248,DRSC11696,-0.515,inactive
CG13248,DRSC24446,0.104,inactive
disp,DRSC12376,-0.433,inactive
disp,DRSC39842,-0.343,inactive
ppk15,DRSC14733,-0.195,inactive
ppk15,DRSC27947,-2.4,active
Or94b,DRSC16773,-0.919,inactive
Or94b,DRSC27188,-0.267,inactive
amx,DRSC23466,-1.54,active
amx,DRSC39794,1.66,active
CG10345,DRSC14138,-0.582,inactive
LpR2,DRSC13726,1.18,inactive
LpR2,DRSC13728,-0.553,inactive
LpR2,DRSC25588,0.0388,inactive
MFS14,DRSC29787,-0.251,inactive
MFS14,DRSC39753,0.779,inactive
18w,DRSC29700,0.35,inactive
CG42542,DRSC15549,0.762,inactive
CG42542,DRSC26676,-0.0844,inactive
Ir48c,DRSC06154,0.451,inactive
Ir48c,DRSC39434,0.735,inactive
CG7497,DRSC28188,-0.571,inactive
CG7497,DRSC37068,-0.126,inactive
CG2698,DRSC15447,-0.439,inactive
CG2698,DRSC39597,0.523,inactive
amrt,DRSC19378,0.191,inactive
amrt,DRSC26943,-0.44,inactive
CG9536,DRSC03254,-0.358,inactive
CG9536,DRSC24736,-1.43,inactive
CG16781,DRSC18117,-0.459,inactive
CG16781,DRSC28112,-0.304,inactive
CG33234,DRSC07994,0.643,inactive
CG33234,DRSC39757,0.695,inactive
Tsp42Ed,DRSC05940,1.53,active
Tsp42Ed,DRSC39728,-0.511,inactive
CG3829,DRSC04423,3.02,active
Appl,DRSC27476,1.11,inactive
Appl,DRSC39441,-1.3,inactive
Cox10,DRSC02804,-0.146,inactive
Cox10,DRSC39538,-1.35,inactive
CG18788,DRSC02697,-0.582,inactive
Syx16,DRSC20507,0.482,inactive
Syx16,DRSC27163,-0.0332,inactive

Next part (8 carried over from the part before).
gene,amplicon,mean ATP z-score,Outcome
CG3829,DRSC04423,3.02,active
Appl,DRSC27476,1.11,inactive
Appl,DRSC39441,-1.3,inactive
Cox10,DRSC02804,-0.146,inactive
Cox10,DRSC39538,-1.35,inactive
CG18788,DRSC02697,-0.582,inactive
Syx16,DRSC20507,0.482,inactive
Syx16,DRSC27163,-0.0332,inactive
CG12446,DRSC20618,-0.365,inactive
Sur,DRSC03447,-0.0895,inactive
Sur,DRSC27276,0.166,inactive
Rh4,DRSC27381,-0.641,inactive
Pvr,DRSC03080,0.538,inactive
Pvr,DRSC36840,3.28,active
Pvr,DRSC36841,3.64,active
hbt + CG43779,DRSC23270,-1.6,active
hbt + CG43779,DRSC39693,-1.25,inactive
Myd88,DRSC06815,-0.808,inactive
Myd88,DRSC39905,0.263,inactive
schlank,DRSC18102,-0.369,inactive
Nrt,DRSC11237,-0.518,inactive
Fas2,DRSC17308,0.745,inactive
Fas2,DRSC17309,0.92,inactive
Fas2,DRSC18664,0.0779,inactive
dsb,DRSC08542,-0.688,inactive
Tsp3A,DRSC18656,-0.366,inactive
Tsp3A,DRSC25654,1.68,active
CG4630,DRSC06874,0.516,inactive
CG4630,DRSC26971,0.91,inactive
CG30345,DRSC05144,-0.509,inactive
CG30345,DRSC39521,0.0952,inactive
Tmtc2,DRSC24987,1.45,inactive
CG11438,DRSC11660,-1.34,inactive
CG11438,DRSC36909,-0.424,inactive
PIG-G,DRSC06823,-0.68,inactive
CG9747,DRSC23910,-1.05,inactive
CG9747,DRSC39676,0.705,inactive
CG8908,DRSC07297,0.485,inactive
CG8908,DRSC39602,-0.808,inactive
mol,DRSC01431,-0.959,inactive
mol,DRSC23967,-0.206,inactive
CG31760,DRSC02590,-1.75,active
CG31760,DRSC27108,2.07,active
Or83c,DRSC12359,0.397,inactive
Or83c,DRSC39535,-0.0761,inactive
senju,DRSC02366,-0.732,inactive
senju,DRSC39769,-0.653,inactive
NLaz,DRSC21521,-0.505,inactive
HisCl1,DRSC14945,-0.769,inactive
CG14856,DRSC14980,-0.0746,inactive
CG31717,DRSC01121,0.0952,inactive
Ir7f,DRSC18012,-0.249,inactive
CadN2,DRSC03062,-0.843,inactive
CadN2,DRSC03063,-1.08,inactive
ppk16,DRSC02736,0.201,inactive
Or65b,DRSC08809,0.0886,inactive
Or65b,DRSC39719,0.689,inactive
